{"source": "patent US9644010B2", "about": "“LY6K epitope peptides for TH1 cells and vaccines containing the same” (ONCOTHERAPY SCIENCE, INC., priority 2012, dated 2017)", "key": {"[1]": {"test_system": "LY6K-specific T cells in PBMCs", "assay": "Assessment of LY6K-specific CD4+ T cell responses in head and neck cancer patients, IFN-gamma ELISPOT after 1 week stimulation of PBMCs with LPs", "assay_type": "cell-based, human", "details": "FIG. 8D; Mann-Whitney U test", "protocol": "Two phase I clinical trials of peptide-based cancer immunotherapy were reviewed and approved by the Institutional Review Board of Kumamoto University, Kumamoto, Japan (approval no. 841 and 1124). […] Tumor stage and grading were determined according to the International Union against cancer (UICC) clarification. The patients suffered from inoperable advanced head and neck cancer with recurrent or metastatic tumors who had been resistant to standard therapy were enrolled in one trial (841). The patients suffered from operable advanced head and neck cancer were enrolled in another trial (1124). These patients in this trial (1124) had been treated with postoperative peptide-vaccine immunotherapy. […]\nThe PBMCs from cancer patients or healthy donors were cultured with 10 micro-g/ml of mixture of LY6K-derived LPs in a 24-well plate (2×10^6/well) in AIM-V supplemented with 5% human decomplemented plasma and IL-7 and IL-2 were added at day 0 and day 2. After 1 week of cell culture, the PBMCs were collected and the presence of LY6K-specific T cells was measured by IFN-gamma ELISPOT assays. […] The number of specific T cells expressed as spot-forming cells/10^5 cells was calculated after subtracting negative control values (background). […] Responses were evaluated to be positive when IFN-gamma were more than 10 and more than 2-fold the background. […]"}, "[2]": {"test_system": "LY6K-A24 (177-186) SP-specific CTLs", "assay": "Synergistic effect of LY6K-LPs on induction of LY6K-specific CTLs", "assay_type": "cell-based, human", "details": "PBMCs from HNMT43, 2 months after immunization; peptides 10 micro-g/mL; 7 days"}}, "note": "Part of at least one peptide drawing is inferred or uncertain, most often the ends. No end group written: not given here.", "data": [{"sequence": "KWTEPYCVIAAVKIFPRFFMVAKQ [LY6K (119-142)]", "values": [{"measurement": "number of LP-specific spots in vaccinated patients compared with HNMT patients before vaccination", "setting": "[1]", "result": "not significant"}, {"measurement": "synergistic effect on induction of LY6K-A24 (177-186) SP-specific CTLs compared with SP alone or SP+control LP", "setting": "[2]", "result": "no synergistic effect"}]}]}
